The other results are listed elsewhere or left out. Rule as the data show it: active = 2-fold of DMSO or more and inactive = the rest. Single values of this set are uncertain. Some low values are a fixed figure set by the source, not a measured ratio.
What follows are molecules tested on CM7/1-hgem mouse ES cell-derived cardiomyocytes (assay: maximal number of mAG-hGem(1/110)-positive cardiomyocytes over 96 h, fold-change vs DMSO; higher = more cardiomyocyte cell cycle activity). Details: 1 µM; 96 (max over 12 h time points) h.

Row | SMILES | maximal number
1 | COc1ccc2c(c1)O[C@@H]1COc3cc(OC)c(OC)cc3[C@@H]1C2=O | inactive: 1
2 | CC1CCc2cc(F)cc3c(=O)c(C(=O)O)cn1c23 (stereo not drawn) | inactive: 1
3 | CCOC(=O)C1=C(C)NC(C)=C(C(=O)OC)C1c1cccc([N+](=O)[O-])c1 (stereo not drawn) | inactive: 1
4 | COC(=O)[C@@H]1OC(=O)C2OC23[C@@]1(C)CCC1[C@@]2(C)CCC(=O)C(C)(C)C2C[C@@H](OC(C)=O)[C@]13C (stereo partly drawn) | inactive: 1
5 | CO/N=C(\C(=O)N[C@@H]1C(=O)N2C(C(=O)OCOC(=O)C(C)(C)C)=C(/C=C\c3scnc3C)CS[C@H]12)c1csc(N)n1 | inactive: 1
6 | CC1(C)[C@@H](O)CC[C@]2(C)[C@H]3C(=O)C=C4[C@@H]5C[C@@](C)(C(=O)O)CC[C@]5(C)CC[C@@]4(C)[C@]3(C)CC[C@@H]12 | inactive: 1
7 | CC(C)CCC[C@@H](C)[C@H]1CC[C@H]2[C@@H]3C[C@@H](O)[C@@]4(O)C[C@@H](O)CC[C@]4(C)[C@H]3CC[C@]12C [CHOLESTAN-3beta,5alpha,6beta-TRIOL] | inactive: 1
8 | O=C(O[C@@H]1Cc2c(O)cc(O)cc2O[C@@H]1c1ccc(O)c(O)c1)c1cc(O)c(O)c(O)c1 | inactive: 1
9 | COc1cc(C(=O)OCCCN2CCCN(CCCOC(=O)c3cc(OC)c(OC)c(OC)c3)CC2)cc(OC)c1OC | inactive: 1
10 | COc1ccc(-c2coc3c(O)c(OC)ccc3c2=O)cc1 | inactive: 1
11 | CC(=O)Oc1cc(-c2coc3cc(OC(C)=O)c(OC(C)=O)c(OC(C)=O)c3c2=O)cc(OC(C)=O)c1OC(C)=O | inactive: 1
12 | COC(=O)C[C@H]1C2(C)CC34OC5(C)O[C@@]6([C@H](OC)C(OC(=O)C(C)C)[C@]7(C)C(/C(=C(/OC)C(C)C)C(=O)O[C@H]7c7ccoc7)[C@@]6(O5)[C@H](OC)[C@@]3(OC)C2OC(C)=O)[C@]14C (stereo partly drawn) | inactive: 1
13 | CC(=O)Oc1ccc2c(c1OC(C)=O)OCC1(O)Cc3c(cc(OC(C)=O)c(OC(C)=O)c3OC(C)=O)C21 (stereo not drawn) | inactive: 1
14 | Cc1nc2n(c(=O)c1CCN1CCC(c3noc4cc(F)ccc34)CC1)CCCC2O (stereo not drawn) | inactive: 1
15 | CN1CCC[C@H]1c1cccnc1 | inactive: 1
16 | O=C(CCCCCCC(=O)Nc1ccccc1)NO | inactive: 1
17 | C[C@@](Cc1ccc(O)c(O)c1)(NN)C(=O)O | inactive: 1
18 | O=C(O)[C@H](O)[C@@](O)(Cc1ccc(O)cc1)C(=O)O | inactive: 1
19 | CC(C(=O)O)c1ccc2c(c1)Cc1cccnc1O2 (stereo not drawn) | inactive: 1

Another view of seven compounds above.
Row	SMILES	maximal number
7	CC(C)CCC[C@@H](C)[C@H]1CC[C@H]2[C@@H]3C[C@@H](O)[C@@]4(O)C[C@@H](O)CC[C@]4(C)[C@H]3CC[C@]12C [CHOLESTAN-3beta,5alpha,6beta-TRIOL]	inactive: 1
8	O=C(O[C@@H]1Cc2c(O)cc(O)cc2O[C@@H]1c1ccc(O)c(O)c1)c1cc(O)c(O)c(O)c1	inactive: 1
9	COc1cc(C(=O)OCCCN2CCCN(CCCOC(=O)c3cc(OC)c(OC)c(OC)c3)CC2)cc(OC)c1OC	inactive: 1
10	COc1ccc(-c2coc3c(O)c(OC)ccc3c2=O)cc1	inactive: 1
11	CC(=O)Oc1cc(-c2coc3cc(OC(C)=O)c(OC(C)=O)c(OC(C)=O)c3c2=O)cc(OC(C)=O)c1OC(C)=O	inactive: 1
12	COC(=O)C[C@H]1C2(C)CC34OC5(C)O[C@@]6([C@H](OC)C(OC(=O)C(C)C)[C@]7(C)C(/C(=C(/OC)C(C)C)C(=O)O[C@H]7c7ccoc7)[C@@]6(O5)[C@H](OC)[C@@]3(OC)C2OC(C)=O)[C@]14C (stereo partly drawn)	inactive: 1
13	CC(=O)Oc1ccc2c(c1OC(C)=O)OCC1(O)Cc3c(cc(OC(C)=O)c(OC(C)=O)c3OC(C)=O)C21 (stereo not drawn)	inactive: 1

Additional structures follow.

Row | SMILES | maximal number
20 | Cc1cccc(C)c1NC(=O)c1ccccc1C(=O)O | inactive: 0.5
21 | CC1(C)[C@@H](O)CC[C@]2(C)[C@H]3C(=O)C=C4[C@H]5C[C@@](C)(C(=O)O)CC[C@]5(C)CC[C@@]4(C)[C@]3(C)CC[C@@H]12 [18alpha-GLYCYRRHETINIC ACID] | inactive: 1
22 | O=c1ccc2ccc(O)cc2o1 | inactive: 0
23 | COc1cc(O)c(C(C)=O)c(OC)c1 | inactive: 0
24 | CCN(CC)CCNC(=O)COc1ccc(OC)cc1 | inactive: 0
25 | Cc1ccc(NC(=O)c2ccc(CN3CCN(C)CC3)cc2)cc1Nc1nccc(-c2cccnc2)n1 | inactive: 1
26 | CC(C)/C(O)=C1/C(=O)O[C@@H](c2ccoc2)[C@]2(C)C(O)[C@@H](O)[C@@]34OC5(C)OC67CC(C)(C(O)[C@]6(O)[C@@H](O)[C@]3(O5)C12)[C@H](CC(=O)O)[C@]74C (stereo partly drawn) | inactive: 1
27 | COC1=C(OC)C(=O)C(C/C=C(\C)CC/C=C(\C)CC/C=C(\C)CC/C=C(/C)CC/C=C(\C)CC/C=C(\C)CC/C=C(\C)CC/C=C(\C)CC/C=C(\C)CCC=C(C)C)=C(C)C1=O | inactive: 1
28 | Nc1nc2c(ncn2COC(CO)CO)c(=O)[nH]1 | inactive: 1
29 | Oc1ccc(/C=C/c2cc(O)cc(O)c2)cc1 | inactive: 1
30 | C[C@@H]1O[C@@H](O[C@H]2[C@H](Oc3cc(O)c4c(=O)cc(-c5ccc(O)cc5)oc4c3)O[C@H](CO)[C@@H](O)[C@@H]2O)[C@H](O)[C@H](O)[C@H]1O | inactive: 1
31 | OC[C@@H](O)[C@@H](O[C@@H]1O[C@H](CO)[C@@H](O)[C@H](O)[C@H]1O)[C@H](O)[C@@H](O)CO | inactive: 1
32 | CC(Oc1c(Cl)cccc1Cl)C1=NCCN1 (stereo not drawn) | inactive: 1
33 | COC(=O)C[C@H]1C(C)(C)[C@@H](O)[C@@H]2CC3=C4C=C(OC)O[C@@H](c5ccoc5)[C@]4(C)CCC3[C@@]1(C)C2=O (stereo partly drawn) [3-DEOXO-3beta-HYDROXYMEXICANOLIDE 16-ENOL ETHER] | inactive: 1
34 | COc1ccc2c(c1)O[C@H]1c3ccc(OC)cc3OC[C@@H]21 | inactive: 1
35 | O=C(OCC(O)CO)c1ccccc1Nc1ccnc2cc(Cl)ccc12 (stereo not drawn) | inactive: 0.5
36 | COc1ccc2c(=O)ccoc2c1 | inactive: 1
37 | CCCCCCCC/C=C/CCCCCCCCOP(=O)([O-])OCC[N+](C)(C)C | inactive: 0
38 | O=C(O)C1(C(=O)O)CCC1.[NH2-].[NH2-].[Pt+2] | inactive: 1
